Measurements taken from paper PMC3936742 (Nucleic Acids Research, 2013).
No constants are given. Whether binding was seen depends on the method and setting. Sequences can lack the tags named with a protein.

How the values were obtained:
Assay in all cases: SEC; Superdex 75 HR, 0.7 ml/min, TBS buffer with 5 mM DTT; for the mix each protein at 5 µM in 100 µl TBS with 5 mM DTT and 3% glycerol, 2 h at room temperature; UV 280 nm, SDS-PAGE of fractions; both purified
[1] = target: Flag-MnmC, full MnmC protein (E. coli) (UniProt P77182)
[2] = target: Flag-MnmC(o), C-terminal oxidoreductase domain of MnmC (amino acids 250-668) (E. coli) (UniProt P77182)
[3] = target: Flag-MnmC(m), N-terminal methyltransferase domain of MnmC (amino acids 1-250) (E. coli) (UniProt P77182)

B1: Flag-MnmC, full MnmC protein (enzyme, UniProt P77182 1-668)
chain: MKHYSIQPANLEFNAEGTPVSRDFDDVYFSNDNGLEETRYVFLGGNQLEVRFPEHPHPLFVVAESGFGTGLNFLTLWQAFDQFREAHPQAQLQRLHFISFEKFPLTRADLALAHQHWPELAPWAEQLQAQWPMPLPGCHRLLLDEGRVTLDLWFGDINELTSQLDDSLNQKVDAWFLDGFAPAKNPDMWTQNLFNAMARLARPGGTLATFTSAGFVRRGLQDAGFTMQKRKGFGRKREMLCGVMEQTLPLPCSAPWFNRTGSSKREAAIIGGGIASALLSLALLRRGWQVTLYCADEAPALGASGNRQGALYPLLSKHDEALNRFFSNAFTFARRFYDQLPVKFDHDWCGVTQLGWDEKSQHKIAQMLSMDLPAELAVAVEANAVEQITGVATNCSGITYPQGGWLCPAELTRNVLELAQQQGLQIYYQYQLQNLSRKDDCWLLNFAGDQQATHSVVVLANGHQISRFSQTSTLPVYSVAGQVSHIPTTPELAELKQVLCYDGYLTPQNPANQHHCIGASYHRGSEDTAYSEDDQQQNRQRLIDCFPQAQWAKEVDVSDKEARCGVRCATRDHLPMVGNVPDYEATLVEYASLAEQKDEAVSAPVFDDLFMFAALGSRGLCSAPLCAEILAAQMSDEPIPMDASTLAALNPNRLWVRKLLKGKAVKAG
binding [1]: no binding

B2: Flag-MnmC(o), C-terminal oxidoreductase domain of MnmC (amino acids 250-668) (domain or fragment, UniProt P77182 250-668)
chain: LPCSAPWFNRTGSSKREAAIIGGGIASALLSLALLRRGWQVTLYCADEAPALGASGNRQGALYPLLSKHDEALNRFFSNAFTFARRFYDQLPVKFDHDWCGVTQLGWDEKSQHKIAQMLSMDLPAELAVAVEANAVEQITGVATNCSGITYPQGGWLCPAELTRNVLELAQQQGLQIYYQYQLQNLSRKDDCWLLNFAGDQQATHSVVVLANGHQISRFSQTSTLPVYSVAGQVSHIPTTPELAELKQVLCYDGYLTPQNPANQHHCIGASYHRGSEDTAYSEDDQQQNRQRLIDCFPQAQWAKEVDVSDKEARCGVRCATRDHLPMVGNVPDYEATLVEYASLAEQKDEAVSAPVFDDLFMFAALGSRGLCSAPLCAEILAAQMSDEPIPMDASTLAALNPNRLWVRKLLKGKAVKAG
binding [2]: no binding

B3: His-MnmC(m), MnmC(m) domain fused at its N-terminal end to a 6x-His-epitope (domain or fragment, E. coli, UniProt P77182 1-250, looked up)
chain: MKHYSIQPANLEFNAEGTPVSRDFDDVYFSNDNGLEETRYVFLGGNQLEVRFPEHPHPLFVVAESGFGTGLNFLTLWQAFDQFREAHPQAQLQRLHFISFEKFPLTRADLALAHQHWPELAPWAEQLQAQWPMPLPGCHRLLLDEGRVTLDLWFGDINELTSQLDDSLNQKVDAWFLDGFAPAKNPDMWTQNLFNAMARLARPGGTLATFTSAGFVRRGLQDAGFTMQKRKGFGRKREMLCGVMEQTLPL
binding [3]: no binding
